# Experimental data taken from paper PMC7528078.
# Weaker means in comparison with the reference protein, sequence or condition of that experiment.
# Molecular target: AF647-p53 (p53-SNAP labeled with AF647) (human) (UniProt P04637)
# Experiment: EMSA
# Details: apparent affinity decreased slightly, same mobility as wild type complex; EMSA: 25 mM HEPES pH 7.9, 50 mM KCl, 2.5 mM MgCl2, 1 mM EDTA, 10% glycerol, 0.1% NP-40, 1 mM DTT, 0.05 mg/mL BSA, room temp 30 min; recombinant protein; residues 1-393; label: 5' 32P on reverse strand
sequence,measurement,value
TAGAGCGAACATGTCTGCGTCG (double strand) [deleted half site DNA (EMSA)],binding result,binds more weakly
